Results published in PMC11574364.
The exact form of at least one protein or probe is not confirmed. For part of these data: Tags and fusion partners may be left off the protein sequences shown.

Experiments:
Assay in all cases: human ORF protein microarray
ZRANB1 (Homo sapiens) = target: T1, ZRANB1 (Homo sapiens) (UniProt Q9UGI0); details: 5' phosphate; Domain array: 20 mM Tris-HCl pH 7.4, 200 mM KCl, 0.2 mM EDTA, 0.05% NP40, 2 ug/ul heparin, overnight 4 C. ORF array: PBS pH 7.0 with RNase inhibitor, 100 ng RNA, 1 h.; recombinant protein; protein details: N-terminal GST-6xHis; label: internal DY647 at G18; letters put together from the description
T1 sequence (looked up, limits assumed): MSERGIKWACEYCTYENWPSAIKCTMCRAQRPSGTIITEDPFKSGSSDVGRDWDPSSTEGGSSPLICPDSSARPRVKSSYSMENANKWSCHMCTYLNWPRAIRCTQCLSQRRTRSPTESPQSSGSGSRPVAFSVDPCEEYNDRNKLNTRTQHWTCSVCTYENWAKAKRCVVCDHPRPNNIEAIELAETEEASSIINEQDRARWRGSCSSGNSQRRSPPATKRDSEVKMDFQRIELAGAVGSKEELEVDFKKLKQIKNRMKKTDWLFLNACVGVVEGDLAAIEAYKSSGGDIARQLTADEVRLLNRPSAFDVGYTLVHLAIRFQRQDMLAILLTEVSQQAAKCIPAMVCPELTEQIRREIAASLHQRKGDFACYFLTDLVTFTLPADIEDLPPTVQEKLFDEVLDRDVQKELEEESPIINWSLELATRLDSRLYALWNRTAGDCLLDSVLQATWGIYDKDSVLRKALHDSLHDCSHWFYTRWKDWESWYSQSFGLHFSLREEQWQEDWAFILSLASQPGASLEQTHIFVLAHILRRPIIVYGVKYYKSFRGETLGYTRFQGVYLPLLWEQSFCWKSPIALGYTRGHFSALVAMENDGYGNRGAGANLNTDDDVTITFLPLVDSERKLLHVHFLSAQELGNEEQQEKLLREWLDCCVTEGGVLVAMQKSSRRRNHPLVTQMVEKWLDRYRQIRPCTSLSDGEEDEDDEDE

ZNF18 (Homo sapiens) = target: T2, ZNF18 (Homo sapiens) (UniProt P17022); details: 5' phosphate; Domain array: 20 mM Tris-HCl pH 7.4, 200 mM KCl, 0.2 mM EDTA, 0.05% NP40, 2 ug/ul heparin, overnight 4 C. ORF array: PBS pH 7.0 with RNase inhibitor, 100 ng RNA, 1 h.; recombinant protein; protein details: N-terminal GST-6xHis; label: internal DY647 at G18; letters put together from the description
T2 sequence (looked up, limits assumed): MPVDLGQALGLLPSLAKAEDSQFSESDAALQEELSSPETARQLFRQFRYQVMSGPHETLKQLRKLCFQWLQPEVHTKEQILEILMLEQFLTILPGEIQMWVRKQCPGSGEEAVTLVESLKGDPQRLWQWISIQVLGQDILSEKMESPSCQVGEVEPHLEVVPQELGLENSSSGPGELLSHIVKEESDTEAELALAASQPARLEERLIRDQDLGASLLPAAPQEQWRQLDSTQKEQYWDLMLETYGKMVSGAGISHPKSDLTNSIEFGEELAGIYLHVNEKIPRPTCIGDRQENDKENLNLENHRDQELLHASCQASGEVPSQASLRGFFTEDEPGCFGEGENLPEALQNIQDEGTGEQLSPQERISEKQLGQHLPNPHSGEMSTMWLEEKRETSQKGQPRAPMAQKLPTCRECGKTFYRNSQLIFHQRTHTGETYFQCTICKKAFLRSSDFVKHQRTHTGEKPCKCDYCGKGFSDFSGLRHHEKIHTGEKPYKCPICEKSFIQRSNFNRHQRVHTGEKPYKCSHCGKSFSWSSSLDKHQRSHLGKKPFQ

WFDC11 (Homo sapiens) = WFDC11 (Homo sapiens) (UniProt Q8NEX6); details: 5' phosphate; Domain array: 20 mM Tris-HCl pH 7.4, 200 mM KCl, 0.2 mM EDTA, 0.05% NP40, 2 ug/ul heparin, overnight 4 C. ORF array: PBS pH 7.0 with RNase inhibitor, 100 ng RNA, 1 h.; recombinant protein; protein details: N-terminal GST-6xHis; label: internal DY647 at G18; letters put together from the description
CYCS (Homo sapiens) = CYCS (Homo sapiens) (UniProt P99999); details: 5' phosphate; amino-C6 U at position 18; Domain array: 20 mM Tris-HCl pH 7.4, 200 mM KCl, 0.2 mM EDTA, 0.05% NP40, 2 ug/ul heparin, overnight 4 C. ORF array: PBS pH 7.0 with RNase inhibitor, 100 ng RNA, 1 h.; recombinant protein; protein details: N-terminal GST-6xHis; label: internal Cy5 or DY647
OR5D14 (Homo sapiens) = target: T3, OR5D14 (Homo sapiens) (UniProt Q8NGL3); details: 5' phosphate; amino-C6 U at position 18; Domain array: 20 mM Tris-HCl pH 7.4, 200 mM KCl, 0.2 mM EDTA, 0.05% NP40, 2 ug/ul heparin, overnight 4 C. ORF array: PBS pH 7.0 with RNase inhibitor, 100 ng RNA, 1 h.; recombinant protein; protein details: N-terminal GST-6xHis; label: internal Cy5 or DY647
T3 sequence (looked up, limits assumed): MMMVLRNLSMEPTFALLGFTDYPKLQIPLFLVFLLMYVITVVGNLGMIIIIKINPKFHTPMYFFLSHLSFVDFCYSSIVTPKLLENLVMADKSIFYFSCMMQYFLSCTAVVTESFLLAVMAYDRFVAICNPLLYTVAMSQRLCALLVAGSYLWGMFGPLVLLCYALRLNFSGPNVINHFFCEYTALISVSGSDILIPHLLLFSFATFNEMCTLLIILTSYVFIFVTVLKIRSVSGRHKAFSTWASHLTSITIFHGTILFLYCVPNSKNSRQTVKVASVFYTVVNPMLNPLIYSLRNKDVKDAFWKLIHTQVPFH

DSCR1L1 (Homo sapiens) = DSCR1L1 (Homo sapiens) (UniProt Q14206); details: 5' phosphate; amino-C6 U at position 18; Domain array: 20 mM Tris-HCl pH 7.4, 200 mM KCl, 0.2 mM EDTA, 0.05% NP40, 2 ug/ul heparin, overnight 4 C. ORF array: PBS pH 7.0 with RNase inhibitor, 100 ng RNA, 1 h.; recombinant protein; protein details: N-terminal GST-6xHis; label: internal Cy5 or DY647
LETM1 (Homo sapiens) = LETM1 (Homo sapiens) (UniProt O95202); details: 5' phosphate; amino-C6 U at position 18; Domain array: 20 mM Tris-HCl pH 7.4, 200 mM KCl, 0.2 mM EDTA, 0.05% NP40, 2 ug/ul heparin, overnight 4 C. ORF array: PBS pH 7.0 with RNase inhibitor, 100 ng RNA, 1 h.; recombinant protein; protein details: N-terminal GST-6xHis; label: internal Cy5 or DY647
KLHL6 (Homo sapiens) = target: T4, KLHL6 (Homo sapiens) (UniProt Q8WZ60); details: 5' phosphate; amino-C6 U at position 18; Domain array: 20 mM Tris-HCl pH 7.4, 200 mM KCl, 0.2 mM EDTA, 0.05% NP40, 2 ug/ul heparin, overnight 4 C. ORF array: PBS pH 7.0 with RNase inhibitor, 100 ng RNA, 1 h.; recombinant protein; protein details: N-terminal GST-6xHis; label: internal Cy5 or DY647
T4 sequence (looked up, limits assumed): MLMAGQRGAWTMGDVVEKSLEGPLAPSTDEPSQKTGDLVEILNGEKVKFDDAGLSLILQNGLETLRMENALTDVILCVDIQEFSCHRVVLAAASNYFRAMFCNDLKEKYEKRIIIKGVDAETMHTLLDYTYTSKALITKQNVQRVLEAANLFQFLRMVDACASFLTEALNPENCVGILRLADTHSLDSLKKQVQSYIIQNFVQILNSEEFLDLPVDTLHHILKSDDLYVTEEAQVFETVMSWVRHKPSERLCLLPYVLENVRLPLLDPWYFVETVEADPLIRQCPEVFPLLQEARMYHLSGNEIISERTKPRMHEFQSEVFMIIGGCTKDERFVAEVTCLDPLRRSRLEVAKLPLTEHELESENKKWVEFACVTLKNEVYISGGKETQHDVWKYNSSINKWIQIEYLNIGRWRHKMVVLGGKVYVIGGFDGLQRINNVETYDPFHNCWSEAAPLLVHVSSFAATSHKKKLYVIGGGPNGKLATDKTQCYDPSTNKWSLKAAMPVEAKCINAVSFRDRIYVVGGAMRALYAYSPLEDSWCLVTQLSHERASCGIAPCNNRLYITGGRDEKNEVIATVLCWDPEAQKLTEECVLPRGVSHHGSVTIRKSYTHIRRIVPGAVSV

PAEP (Homo sapiens) = target: T5, PAEP (Homo sapiens) (UniProt P09466); details: 5' phosphate; amino-C6 U at position 18; Domain array: 20 mM Tris-HCl pH 7.4, 200 mM KCl, 0.2 mM EDTA, 0.05% NP40, 2 ug/ul heparin, overnight 4 C. ORF array: PBS pH 7.0 with RNase inhibitor, 100 ng RNA, 1 h.; recombinant protein; protein details: N-terminal GST-6xHis; label: internal Cy5 or DY647
T5 sequence (looked up, limits assumed): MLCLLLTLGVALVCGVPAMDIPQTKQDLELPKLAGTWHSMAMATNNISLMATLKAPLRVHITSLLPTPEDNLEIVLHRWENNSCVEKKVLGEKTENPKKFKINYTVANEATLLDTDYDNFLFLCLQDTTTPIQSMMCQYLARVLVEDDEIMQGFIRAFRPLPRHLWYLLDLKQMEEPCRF

Measured: binding result

CAGUGCAAUGAUGAAAGGGCAU [miR-130b (internal labeling)]
binds: ZRANB1 (Homo sapiens)

UAGCUUAUCAGACUGAUGUUGA [miR-21 (internal labeling)]
binds: ZNF18 (Homo sapiens) | WFDC11 (Homo sapiens)

UGAGGUAGUAGGUUGUGUGGUU [let-7b (internal labeling)]
binds: CYCS (Homo sapiens) | OR5D14 (Homo sapiens) | DSCR1L1 (Homo sapiens) | LETM1 (Homo sapiens) | KLHL6 (Homo sapiens) | PAEP (Homo sapiens)
